No constants are given. Whether binding was seen depends on the method and setting. Some binding calls cover weakened binding; strength is not graded here.
Molecular target: T1, Saccharolobus solfataricus GINS23 (Saccharolobus solfataricus)
T1 sequence: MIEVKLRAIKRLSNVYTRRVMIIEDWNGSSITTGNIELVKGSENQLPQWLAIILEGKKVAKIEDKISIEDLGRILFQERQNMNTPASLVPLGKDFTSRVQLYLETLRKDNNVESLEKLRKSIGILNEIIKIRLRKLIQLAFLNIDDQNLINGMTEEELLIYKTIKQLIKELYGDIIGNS
Test: crystal structure; co-expressed and co-purified SsoGINS tetramer, 11 mg/ml in 20 mM Tris pH 8.3, 100 mM NaCl; hanging drop, 0.18 M triammonium citrate, 20%(w/v) PEG 3350, 291 K; space group P6_(3), 2.3 Å; both purified

binding: binds
B1: Saccharolobus solfataricus GINS51 (natural protein)
chain: MLDELVKKELSEEEITEIKLEEIIKYITLIKKSKTFVSSEIRKEELKFLSELAESLFELRLSKVLEGKVGKGFDEFIFDIFKILKQFYVDLLTGRYIIYNDKIYCIVQKPLIYNDHRVNEGDVLVLPMREALPLIIASYLTPYKIDIEEQL
notes: GINS51 of Saccharolobus solfataricus, gene amplified from genomic DNA (ATCC 35092D-5); Two copies stand in the (GINS23)2(GINS51)2 tetramer; A subdomain (alpha-helical) comes first, B subdomain (with beta-strands) second; also called SsoGINS51; Sso51

— PMC12035558, “Structure of the Saccharolobus solfataricus GINS tetramer” (Acta Crystallographica Section F: Structural Biology …, 2025)
